Reference: the supplement of paper PMC8728848
Some of the results follow.

What was measured:
Experiment in all cases: glycan array binding signal (z-score within array); higher = stronger binding
Settings in all cases: glycan notation: IUPAC condensed, linker removed
[1] = target: GlcNAc(b1-2)[GlcNAc(b1-4)]Man(a1-3)[GlcNAc(b1-4)][GlcNAc(b1-2)[GlcNAc(b1-6)]Man(a1-6)]Man(b1-4)GlcNAc(b1-4)GlcNAc
How it was run: (§1)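 Columns mapping to the same glycan were averaged after glycan names were converted to IUPAC-condensed notation. The data come from 3228 arrays in the Consortium for Functional Glycomics database, limited to those with an available protein sequence. Binding is reported as a within-array Z-score averaged across arrays of one protein sequence and across linkers.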

[2] = target: GlcNAc(b1-2)[GlcNAc(b1-4)]Man(a1-3)[GlcNAc(b1-4)][GlcNAc(b1-2)[GlcNAc(b1-6)]Man(a1-6)]Man(b1-4)GlcNAc(b1-4)[Fuc(a1-6)]GlcNAc
How it was run: as §1

[3] = target: GlcNAc(b1-2)[GlcNAc(b1-6)]Man(a1-6)[GlcNAc(b1-2)Man(a1-3)]Man(b1-4)GlcNAc(b1-4)GlcNAc
How it was run: as §1

[4] = target: GlcNAc(b1-2)[GlcNAc(b1-6)]Man(a1-6)[GlcNAc(b1-2)Man(a1-3)]Man(b1-4)GlcNAc(b1-4)[Fuc(a1-6)]GlcNAc
How it was run: as §1

[5] = target: GlcNAc(b1-2)[GlcNAc(b1-6)]Man(a1-6)[GlcNAc(b1-4)][GlcNAc(b1-2)Man(a1-3)]Man(b1-4)GlcNAc(b1-4)GlcNAc
How it was run: as §1

GlcNAc(b1-3)Fuc = target: GlcNAc(b1-3)Fuc
How it was run: as §1

GlcNAc(b1-3)Gal = target: GlcNAc(b1-3)Gal
How it was run: as §1

[6] = target: GlcNAc(b1-3)Gal(b1-3)GalNAc
How it was run: as §1

GlcNAc(b1-3)Gal(b1-4)Glc = target: GlcNAc(b1-3)Gal(b1-4)Glc
How it was run: as §1

[7] = target: GlcNAc(b1-3)Gal(b1-4)GlcNAc
How it was run: as §1

[8] = target: GlcNAc(b1-3)Gal(b1-4)GlcNAc(b1-2)Man(a1-3)[GlcNAc(b1-3)Gal(b1-4)GlcNAc(b1-2)Man(a1-6)]Man(b1-4)GlcNAc(b1-4)GlcNAc
How it was run: as §1

[9] = target: GlcNAc(b1-3)Gal(b1-4)GlcNAc(b1-2)Man(a1-3)[GlcNAc(b1-3)Gal(b1-4)GlcNAc(b1-2)Man(a1-6)]Man(b1-4)GlcNAc(b1-4)[Fuc(a1-6)]GlcNAc
How it was run: as §1

[10] = target: GlcNAc(b1-3)Gal(b1-4)GlcNAc(b1-2)[GlcNAc(b1-3)Gal(b1-4)GlcNAc(b1-6)]Man(a1-6)[GlcNAc(b1-3)Gal(b1-4)GlcNAc(b1-2)Man(a1-3)]Man(b1-4)GlcNAc(b1-4)GlcNAc
How it was run: as §1

[11] = target: GlcNAc(b1-3)Gal(b1-4)GlcNAc(b1-3)Gal(b1-4)GlcNAc
How it was run: as §1

[12] = target: GlcNAc(b1-3)Gal(b1-4)GlcNAc(b1-3)Gal(b1-4)GlcNAc(b1-2)Man(a1-3)[GlcNAc(b1-3)Gal(b1-4)GlcNAc(b1-3)Gal(b1-4)GlcNAc(b1-2)Man(a1-6)]Man(b1-4)GlcNAc(b1-4)GlcNAc
How it was run: as §1

[13] = target: GlcNAc(b1-3)Gal(b1-4)GlcNAc(b1-3)Gal(b1-4)GlcNAc(b1-2)Man(a1-3)[GlcNAc(b1-3)Gal(b1-4)GlcNAc(b1-3)Gal(b1-4)GlcNAc(b1-2)Man(a1-6)]Man(b1-4)GlcNAc(b1-4)[Fuc(a1-6)]GlcNAc
How it was run: as §1

[14] = target: GlcNAc(b1-3)Gal(b1-4)GlcNAc(b1-3)Gal(b1-4)GlcNAc(b1-2)[GlcNAc(b1-3)Gal(b1-4)GlcNAc(b1-3)Gal(b1-4)GlcNAc(b1-6)]Man(a1-6)[GlcNAc(b1-3)Gal(b1-4)GlcNAc(b1-3)Gal(b1-4)GlcNAc(b1-2)Man(a1-3)]Man(b1-4)GlcNAc(b1-4)[Fuc(a1-6)]GlcNAc
How it was run: as §1

[15] = target: GlcNAc(b1-3)Gal(b1-4)GlcNAc(b1-3)Gal(b1-4)GlcNAc(b1-3)Gal(b1-4)GlcNAc(b1-2)Man(a1-3)[GlcNAc(b1-3)Gal(b1-4)GlcNAc(b1-3)Gal(b1-4)GlcNAc(b1-3)Gal(b1-4)GlcNAc(b1-2)Man(a1-6)]Man(b1-4)GlcNAc(b1-4)GlcNAc
How it was run: as §1

[16] = target: GlcNAc(b1-3)Gal(b1-4)GlcNAc(b1-3)Gal(b1-4)GlcNAc(b1-3)Gal(b1-4)GlcNAc(b1-2)Man(a1-3)[GlcNAc(b1-3)Gal(b1-4)GlcNAc(b1-3)Gal(b1-4)GlcNAc(b1-3)Gal(b1-4)GlcNAc(b1-2)Man(a1-6)]Man(b1-4)GlcNAc(b1-4)[Fuc(a1-6)]GlcNAc
How it was run: as §1

[17] = target: GlcNAc(b1-3)Gal(b1-4)GlcNAc(b1-3)Gal(b1-4)GlcNAc(b1-3)Gal(b1-4)GlcNAc(b1-2)[GlcNAc(b1-3)Gal(b1-4)GlcNAc(b1-3)Gal(b1-4)GlcNAc(b1-3)Gal(b1-4)GlcNAc(b1-6)]Man(a1-6)[GlcNAc(b1-3)Gal(b1-4)GlcNAc(b1-3)Gal(b1-4)GlcNAc(b1-3)Gal(b1-4)GlcNAc(b1-2)Man(a1-3)]Man(b1-4)GlcNAc(b1-4)[Fuc(a1-6)]GlcNAc
How it was run: as §1

[18] = target: GlcNAc(b1-3)Gal(b1-4)GlcNAc(b1-3)Gal(b1-4)GlcNAc(b1-3)Gal(b1-4)GlcNAc(b1-3)Gal(b1-4)GlcNAc(b1-2)Man(a1-3)[GlcNAc(b1-3)Gal(b1-4)GlcNAc(b1-3)Gal(b1-4)GlcNAc(b1-3)Gal(b1-4)GlcNAc(b1-3)Gal(b1-4)GlcNAc(b1-2)Man(a1-6)]Man(b1-4)GlcNAc(b1-4)GlcNAc
How it was run: as §1

[19] = target: GlcNAc(b1-3)Gal(b1-4)GlcNAc(b1-3)Gal(b1-4)GlcNAc(b1-3)Gal(b1-4)GlcNAc(b1-3)Gal(b1-4)GlcNAc(b1-2)Man(a1-3)[GlcNAc(b1-3)Gal(b1-4)GlcNAc(b1-3)Gal(b1-4)GlcNAc(b1-3)Gal(b1-4)GlcNAc(b1-3)Gal(b1-4)GlcNAc(b1-2)Man(a1-6)]Man(b1-4)GlcNAc(b1-4)[Fuc(a1-6)]GlcNAc
How it was run: as §1

[20] = target: GlcNAc(b1-3)Gal(b1-4)GlcNAc(b1-3)Gal(b1-4)GlcNAc(b1-3)Gal(b1-4)GlcNAc(b1-3)Gal(b1-4)GlcNAc(b1-2)[GlcNAc(b1-3)Gal(b1-4)GlcNAc(b1-3)Gal(b1-4)GlcNAc(b1-3)Gal(b1-4)GlcNAc(b1-3)Gal(b1-4)GlcNAc(b1-6)]Man(a1-6)[GlcNAc(b1-3)Gal(b1-4)GlcNAc(b1-3)Gal(b1-4)GlcNAc(b1-3)Gal(b1-4)GlcNAc(b1-3)Gal(b1-4)GlcNAc(b1-2)Man(a1-3)]Man(b1-4)GlcNAc(b1-4)[Fuc(a1-6)]GlcNAc
How it was run: as §1

[21] = target: GlcNAc(b1-3)Gal(b1-4)GlcNAc(b1-3)Gal(b1-4)GlcNAc(b1-3)GalNAc
How it was run: as §1

[22] = target: GlcNAc(b1-3)Gal(b1-4)GlcNAc(b1-3)GalNAc
How it was run: as §1

[23] = target: GlcNAc(b1-3)Gal(b1-4)GlcNAc(b1-3)[GlcNAc(b1-3)Gal(b1-4)GlcNAc(b1-3)]GalNAc
How it was run: as §1

[24] = target: GlcNAc(b1-3)Gal(b1-4)GlcNAc(b1-6)[Gal(b1-3)]GalNAc
How it was run: as §1

[25] = target: GlcNAc(b1-3)Gal(b1-4)GlcNAc(b1-6)[GlcNAc(b1-3)Gal(b1-3)]GalNAc
How it was run: as §1

[26] = target: GlcNAc(b1-3)Gal(b1-4)GlcNAc(b1-6)[GlcNAc(b1-3)]Gal(b1-4)GlcNAc
How it was run: as §1

GlcNAc(b1-3)GalNAc = target: GlcNAc(b1-3)GalNAc
How it was run: as §1

GlcNAc(b1-3)Man = target: GlcNAc(b1-3)Man
How it was run: as §1

[27] = target: GlcNAc(b1-3)[GlcNAc(b1-4)][GlcNAc(b1-6)]GlcNAc
How it was run: as §1

[28] = target: GlcNAc(b1-3)[GlcNAc(b1-6)]Gal(b1-4)GlcNAc
How it was run: as §1

[29] = target: GlcNAc(b1-3)[GlcNAc(b1-6)]GalNAc
How it was run: as §1

[30] = target: GlcNAc(b1-4)Gal(b1-4)GlcNAc
How it was run: as §1

GlcNAc(b1-4)GlcNAc = target: GlcNAc(b1-4)GlcNAc
How it was run: as §1

[31] = target: GlcNAc(b1-4)GlcNAc(b1-4)GlcNAc
How it was run: as §1

[32] = target: GlcNAc(b1-4)GlcNAc(b1-4)GlcNAc(b1-4)GlcNAc(b1-4)GlcNAc
How it was run: as §1

B1: PX9961KLbvu-535-38-535 (Bacteroides vulgatus) (protein)
chain: DKAYTDAESYTKGLHKIYSVWALSGQDGSSSSDISGLDAGNTALLRCWWTLQEQPTDEMKNAWNDAWCTEVNYMTWTTNKVEPIEGVYQRCMYIVALVNEFLKNIPNAPESIDKESYIAQARFNRAFAYYVLMDMFALPPFITEKNYSIEPAPLSREDLFNWIEAELNEIKPNLPSPRSEYGVADQAVASALLARMYLNAEIYTGKARYTECINACNEVIKAGYQLADNYADLFKADNGENPDTKKEIIYPIIFDGDKTQSWGMAAIIIGARGAEDKDVLLAHSGVDQGWAGFRATSNLVHLFDFQNDEEPKASEIQDKRGIFYDKGRSIDITSSVSGTFETEGWSVFKFSNLNSNGQPGKNTLWVDTDFPMFRLGDIYLMYAEAVARGGEGSKASAVEYINALRKRAYGDDKHNISENWLEENNFRNLLDERGRELYWEGIRRTDLVRFDLLTSGSYTWDFKGGINTGVGVNKRYNVYPIPVTDLTVNGNLQQNEGY
glycan array binding signal (z-score) [1]: -0.497
glycan array binding signal (z-score) [2]: -0.276
glycan array binding signal (z-score) [3]: 0.491
glycan array binding signal (z-score) [4]: 0.105
glycan array binding signal (z-score) [5]: 0.023
glycan array binding signal (z-score) (GlcNAc(b1-3)Fuc): -0.224
glycan array binding signal (z-score) (GlcNAc(b1-3)Gal): 0.036
glycan array binding signal (z-score) [6]: 0.447
glycan array binding signal (z-score) (GlcNAc(b1-3)Gal(b1-4)Glc): 0.444
glycan array binding signal (z-score) [7]: -0.114
glycan array binding signal (z-score) [8]: 0.117
glycan array binding signal (z-score) [9]: 1.08
glycan array binding signal (z-score) [10]: 0.052
glycan array binding signal (z-score) [11]: 0.712
glycan array binding signal (z-score) [12]: 0.747
glycan array binding signal (z-score) [13]: 1.82
glycan array binding signal (z-score) [14]: 0.595
glycan array binding signal (z-score) [15]: -0.182
glycan array binding signal (z-score) [16]: 1.31
glycan array binding signal (z-score) [17]: 0.082
glycan array binding signal (z-score) [18]: 0.062
glycan array binding signal (z-score) [19]: 0.09
glycan array binding signal (z-score) [20]: 1.39
glycan array binding signal (z-score) [21]: -0.909
glycan array binding signal (z-score) [22]: 0.654
glycan array binding signal (z-score) [23]: 0.426
glycan array binding signal (z-score) [24]: -0.359
glycan array binding signal (z-score) [25]: -0.248
glycan array binding signal (z-score) [26]: -0.8
glycan array binding signal (z-score) (GlcNAc(b1-3)GalNAc): -0.231
glycan array binding signal (z-score) (GlcNAc(b1-3)Man): -0.076
glycan array binding signal (z-score) [27]: -0.666
glycan array binding signal (z-score) [28]: -0.966
glycan array binding signal (z-score) [29]: -0.101
glycan array binding signal (z-score) [30]: -1.05
glycan array binding signal (z-score) (GlcNAc(b1-4)GlcNAc): -0.268
glycan array binding signal (z-score) [31]: -1.19
glycan array binding signal (z-score) [32]: -0.429
